Results are given in words; binding and its absence hold for the method and conditions named. For some of these results: Binding seen in cells or lysates may run through a third protein. Some binding calls cover weakened binding; strength is not graded here. Where a sequence is shown, tags or fusion partners need not be part of it.

Binding data for 2 molecules are collected here from publication PMC12574955, “The Ync13–Rga7–Rng10 complex selectively coordinates secretory vesicle trafficking and secondary septum formation during cytokinesis” (PLOS Biology, 2025).

Experiment [1] has as its target T1, Rga7-mEGFP (Schizosaccharomyces pombe) (UniProt O94466).
T1 sequence: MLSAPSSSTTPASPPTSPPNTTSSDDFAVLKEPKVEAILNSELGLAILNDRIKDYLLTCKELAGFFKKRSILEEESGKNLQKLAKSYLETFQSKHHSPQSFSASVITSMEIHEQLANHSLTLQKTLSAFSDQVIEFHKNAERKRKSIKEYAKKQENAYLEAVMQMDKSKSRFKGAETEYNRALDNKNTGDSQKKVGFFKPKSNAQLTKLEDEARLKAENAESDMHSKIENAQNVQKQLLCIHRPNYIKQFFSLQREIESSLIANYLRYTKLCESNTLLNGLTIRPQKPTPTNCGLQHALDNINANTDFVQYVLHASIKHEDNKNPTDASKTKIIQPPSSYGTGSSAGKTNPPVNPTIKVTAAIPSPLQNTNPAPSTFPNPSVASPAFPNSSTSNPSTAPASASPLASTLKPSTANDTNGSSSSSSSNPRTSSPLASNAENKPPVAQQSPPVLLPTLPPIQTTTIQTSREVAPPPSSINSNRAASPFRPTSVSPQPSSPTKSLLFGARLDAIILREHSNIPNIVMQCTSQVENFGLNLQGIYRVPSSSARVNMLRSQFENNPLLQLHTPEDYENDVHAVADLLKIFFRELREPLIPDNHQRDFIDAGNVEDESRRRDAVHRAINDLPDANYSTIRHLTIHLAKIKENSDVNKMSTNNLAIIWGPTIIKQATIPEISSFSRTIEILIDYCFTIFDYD
Description: ectopic mistargeting to mitochondria (Tom20-GBP); protein 1 tagged with mEGFP or mECitrine tethered to mitochondria by Tom20-GBP in live S. pombe cells; recruitment of tdTomato/mCherry/RFP-tagged protein 2 seen by confocal microscopy; Ync13 with Sec1 also tested in rng10Δ cells.

Experiment [2] concerns the target T2, Rng10-mEGFP (Schizosaccharomyces pombe) (UniProt Q9P6L9).
T2 sequence: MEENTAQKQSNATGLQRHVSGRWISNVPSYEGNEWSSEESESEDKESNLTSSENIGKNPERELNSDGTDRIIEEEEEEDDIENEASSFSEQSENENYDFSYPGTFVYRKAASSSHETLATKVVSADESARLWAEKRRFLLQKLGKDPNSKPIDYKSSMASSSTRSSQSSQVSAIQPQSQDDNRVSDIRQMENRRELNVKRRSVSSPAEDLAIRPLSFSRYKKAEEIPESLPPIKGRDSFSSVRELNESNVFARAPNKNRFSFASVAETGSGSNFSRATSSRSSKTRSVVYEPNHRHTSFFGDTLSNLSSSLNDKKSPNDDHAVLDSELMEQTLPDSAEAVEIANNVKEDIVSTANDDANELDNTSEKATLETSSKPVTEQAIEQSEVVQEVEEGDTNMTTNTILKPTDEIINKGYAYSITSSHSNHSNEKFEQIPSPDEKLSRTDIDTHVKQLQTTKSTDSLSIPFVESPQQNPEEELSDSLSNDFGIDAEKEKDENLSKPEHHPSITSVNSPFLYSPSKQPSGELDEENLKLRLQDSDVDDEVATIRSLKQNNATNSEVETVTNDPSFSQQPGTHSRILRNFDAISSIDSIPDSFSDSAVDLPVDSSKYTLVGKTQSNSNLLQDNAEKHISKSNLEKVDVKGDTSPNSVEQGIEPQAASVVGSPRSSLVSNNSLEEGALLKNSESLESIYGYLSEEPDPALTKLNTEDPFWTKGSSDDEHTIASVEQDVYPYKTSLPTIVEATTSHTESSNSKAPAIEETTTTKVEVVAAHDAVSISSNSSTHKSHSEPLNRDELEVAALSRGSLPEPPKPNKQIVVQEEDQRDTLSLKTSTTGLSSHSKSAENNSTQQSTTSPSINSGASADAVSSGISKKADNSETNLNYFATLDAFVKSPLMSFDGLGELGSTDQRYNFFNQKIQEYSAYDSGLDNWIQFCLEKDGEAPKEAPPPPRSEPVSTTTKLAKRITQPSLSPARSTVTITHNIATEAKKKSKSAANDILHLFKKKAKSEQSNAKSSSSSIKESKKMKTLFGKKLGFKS
The description is as above.

Experiment [3] deals with T3, Smi1-mEGFP (Schizosaccharomyces pombe) (UniProt O14362).
T3 sequence: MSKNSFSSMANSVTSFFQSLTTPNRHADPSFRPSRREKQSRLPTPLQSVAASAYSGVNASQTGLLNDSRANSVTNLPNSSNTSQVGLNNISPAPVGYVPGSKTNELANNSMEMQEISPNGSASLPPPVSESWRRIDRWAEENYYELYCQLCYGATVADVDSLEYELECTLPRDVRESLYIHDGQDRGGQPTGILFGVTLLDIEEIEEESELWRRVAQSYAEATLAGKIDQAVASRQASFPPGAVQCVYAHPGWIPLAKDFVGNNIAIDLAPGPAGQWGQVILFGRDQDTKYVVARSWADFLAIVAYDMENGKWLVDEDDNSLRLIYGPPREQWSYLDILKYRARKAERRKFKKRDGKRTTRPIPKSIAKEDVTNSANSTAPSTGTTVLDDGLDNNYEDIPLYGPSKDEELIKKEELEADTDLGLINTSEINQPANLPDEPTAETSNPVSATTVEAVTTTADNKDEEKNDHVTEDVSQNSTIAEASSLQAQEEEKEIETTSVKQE
Description: co-IP; S. pombe cell extracts, proteins under native promoters; polyclonal GFP antibody on protein G Dynabeads, 2 h at 4°C; IP buffer 50 mM HEPES pH 7.5, 150 mM NaCl, 1 mM EDTA, 0.1% NP-40; anti-Myc and anti-GFP blots.

Experiment [4] concerns the target T4, Ync13-mECitrine (Schizosaccharomyces pombe) (UniProt O13683).
T4 sequence: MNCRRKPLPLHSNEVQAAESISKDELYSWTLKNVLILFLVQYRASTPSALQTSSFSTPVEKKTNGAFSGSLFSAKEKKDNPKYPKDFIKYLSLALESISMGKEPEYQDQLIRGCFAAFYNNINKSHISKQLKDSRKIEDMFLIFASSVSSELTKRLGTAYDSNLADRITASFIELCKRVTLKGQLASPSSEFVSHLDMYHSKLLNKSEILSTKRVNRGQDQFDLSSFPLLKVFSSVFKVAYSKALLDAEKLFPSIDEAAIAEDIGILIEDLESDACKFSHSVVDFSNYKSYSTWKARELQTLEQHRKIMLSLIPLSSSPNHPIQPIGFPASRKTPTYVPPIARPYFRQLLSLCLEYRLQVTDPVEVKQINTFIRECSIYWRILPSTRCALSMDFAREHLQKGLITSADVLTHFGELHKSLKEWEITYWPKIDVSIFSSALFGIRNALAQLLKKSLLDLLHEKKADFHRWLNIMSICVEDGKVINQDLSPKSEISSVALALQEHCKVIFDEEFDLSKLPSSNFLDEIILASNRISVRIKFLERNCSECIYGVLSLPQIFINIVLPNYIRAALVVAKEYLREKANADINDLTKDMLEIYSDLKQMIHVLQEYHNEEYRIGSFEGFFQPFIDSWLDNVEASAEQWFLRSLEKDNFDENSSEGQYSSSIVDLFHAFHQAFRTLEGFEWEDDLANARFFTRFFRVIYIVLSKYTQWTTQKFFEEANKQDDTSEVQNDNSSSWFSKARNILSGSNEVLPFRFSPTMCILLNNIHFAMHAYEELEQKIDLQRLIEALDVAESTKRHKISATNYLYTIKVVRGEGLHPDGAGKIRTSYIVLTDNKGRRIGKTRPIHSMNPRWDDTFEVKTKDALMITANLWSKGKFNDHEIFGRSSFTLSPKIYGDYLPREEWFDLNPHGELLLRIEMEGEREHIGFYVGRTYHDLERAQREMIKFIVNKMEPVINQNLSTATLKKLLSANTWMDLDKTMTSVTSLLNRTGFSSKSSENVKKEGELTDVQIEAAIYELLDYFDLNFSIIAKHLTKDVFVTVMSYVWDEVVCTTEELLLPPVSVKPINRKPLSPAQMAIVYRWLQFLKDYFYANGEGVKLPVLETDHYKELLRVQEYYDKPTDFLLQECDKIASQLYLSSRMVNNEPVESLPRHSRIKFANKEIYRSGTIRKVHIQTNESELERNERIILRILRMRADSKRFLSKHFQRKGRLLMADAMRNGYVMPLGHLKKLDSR
The description is as above.

B1: Trs120-tdTomato (protein, UniProt O14251 1-1210)
chain: MEFDFFSFVAPSRVQSLVLPFGRVRRKSFSSYLQLLRRVSHIQLSDVPVATATRKSSSFNPLAFPLGRLVYNFLTSLDDQQALLEEFEYFRRVFVLIGIVDGSEEQEVEQLCSTLDVWRRRIPHALVAKCIVFNCPEDKENIFNAPNIIIGPRSDFSINSVMRSILCDITAELLEGFSSLEFSIHARSVILSPITDMPHLAPLQRKNSNASIHSLGSSSRPTLTRTPSITSRSVNSVTERSKSLSKGRIENQFGQLYLLAGRVPNALKHFSTAIALSKATGDFLWQGLSLELFTVCLVIMAHLHVDVQIPPNILSMFPSYNDRLNAFGPLKFDALLNFITEMRNVVDQLYQKSTLQPNDAVPGLCFSESILRYAHLLTVVYSCKGFNDNALDHIIAQAPIRPVKKATTYVPNKATICQWIMRAQGQHLNSLSIRERCRIYGAMANMLGSIGFSRLRVKMLRELVASLTPVLLETRRQNASKNGIHPEVIASHTAQSFKSTHYCNILPLISEICQEYGLLKTDGSLLNPELTKWGWSNLQFDVLNELISLCDSLSDYRSILLLISLFFLTSVQTASSSQQISMFKAFRKTYLFASNAGIHINAPYWDPFMITDLKFIGSSENAELIHQRLRNGLPKSIEKGPFIYNPFNRRQDQNQSKSVLVVDEQVAFSIYFRNPLSVSVEVQDVHLETKGVSAKCSHSTFTMRPLSIERTTLTVTPTETGELHIVGCRVKVFGCEPILQYVYEAKDKHKSLHVYLEKSKDVNAELRSLDTIDHLWTYFPFKKDLKTKSFDCIVIASQPKLSLAFQNLTSGKFNFAEYETGELVYVIENTSFVEASHISVLFEDSSSKAFEQAIADKSITADRLYELQFEEFNLPTFTVESSQPFSLSPGERREIHIKIRAKPNSQEGLILFESSVHKPEDTEFYVRRLRIPVSLNISKRVDLKQWSAFMDTEGDPSYCLVLLNFYNHFSEPLFVTVKTASTDESRSVLIKPKADNVILFRLKRFIMSSEEINLDIPNLSTKQFVLSSGFKKSIEDSYTMKKRFWIKEYFLKEVQASWKTDDNLHHGEIYLRNHILSDEMANNLSILPIRIQAWVSYDSEKVTTVCPREPFKLVLEFFGHADTNMRYKISWTQLNTQANTSSFNGLILDGPEEDIVCFNNSKCHVVIERNMFAYTTGMYNIFVRIFNEELQLLSQPVDLDEPILLIVDAK
Consider B1, for which the binding result in experiment [1] and in experiment [2] was “binds” each time.

B2: Rga7-13Myc (protein, UniProt O94466 1-695)
chain: MLSAPSSSTTPASPPTSPPNTTSSDDFAVLKEPKVEAILNSELGLAILNDRIKDYLLTCKELAGFFKKRSILEEESGKNLQKLAKSYLETFQSKHHSPQSFSASVITSMEIHEQLANHSLTLQKTLSAFSDQVIEFHKNAERKRKSIKEYAKKQENAYLEAVMQMDKSKSRFKGAETEYNRALDNKNTGDSQKKVGFFKPKSNAQLTKLEDEARLKAENAESDMHSKIENAQNVQKQLLCIHRPNYIKQFFSLQREIESSLIANYLRYTKLCESNTLLNGLTIRPQKPTPTNCGLQHALDNINANTDFVQYVLHASIKHEDNKNPTDASKTKIIQPPSSYGTGSSAGKTNPPVNPTIKVTAAIPSPLQNTNPAPSTFPNPSVASPAFPNSSTSNPSTAPASASPLASTLKPSTANDTNGSSSSSSSNPRTSSPLASNAENKPPVAQQSPPVLLPTLPPIQTTTIQTSREVAPPPSSINSNRAASPFRPTSVSPQPSSPTKSLLFGARLDAIILREHSNIPNIVMQCTSQVENFGLNLQGIYRVPSSSARVNMLRSQFENNPLLQLHTPEDYENDVHAVADLLKIFFRELREPLIPDNHQRDFIDAGNVEDESRRRDAVHRAINDLPDANYSTIRHLTIHLAKIKENSDVNKMSTNNLAIIWGPTIIKQATIPEISSFSRTIEILIDYCFTIFDYD
In the case of B2, the binding result in experiment [3] and in experiment [4] was “binds” each time.
